Taken from: PubChem BioAssay AID743454 (Peter MacCallum Cancer Centre, 2014)

- Test: 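Genes whose loss kills vorinostat-resistant colon cancer cells under vorinostat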 (primary screen)
- Cell system: human HCT116-VR colon cancer cells, selected for vorinostat resistance
- Reagents: siRNA pool against human genes, 40 nM siRNA pool
- Duration: vorinostat for 24 h, read-out about 72 h after transfection
- Treatment: vorinostat at 2.5 µM final
- Detection: 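Cell viability by CellTiter-Fluor and caspase 3/7 activity by luminescence, each scaled to mock wells per plate, duplicates averaged, then robust z-scored over all plates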
- Direction: viability robust z-score: higher = more viable cells than screen typical; caspase robust z-score: higher = more caspase 3/7 activity than screen typical
- Call rule: 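a knock-down is a hit when classed RV1 or RV2 for lowered viability, or CA1 or CA2 for caspase activation; those lethal without drug were dropped; hits were retested singly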
Here is an unselected part of about 18,000 reagents tested. 450 of them (2.5%) were called active. 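Single biological run; no consistent viability z cut-off exists, so the class columns, not z-scores, define the calls.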 Reagent sequences are not shown.

After knock-down of RPL10 (ribosomal protein L10), the screen gave viability hit class no change; caspase hit class no change; viability robust z-score -4.57; caspase robust z-score -1.5; inactive.
DALRD3 (DALR anticodon binding domain containing 3) showed viability hit class no change; caspase hit class no change; viability robust z-score 0.04; caspase robust z-score 2.84; inactive.
Against CMA1 (chymase 1), the entry reads viability hit class no change; caspase hit class no change; viability robust z-score 0.68; caspase robust z-score 1.19; inactive.
Depletion of KHDC4 (KH domain containing 4, pre-mRNA splicing factor) came out at: viability hit class no change; caspase hit class no change; viability robust z-score -0.45; caspase robust z-score 0.51; inactive.
With knock-down of OR10H4 (olfactory receptor family 10 subfamily H member 4), the screen gave viability hit class no change; caspase hit class no change; viability robust z-score -0.54; caspase robust z-score 1.04; inactive.
After knock-down of CCDC187 (coiled-coil domain containing 187), the screen gave viability hit class no change; caspase hit class no change; viability robust z-score 0.8; caspase robust z-score 1; inactive.
Knock-down of ARSH (arylsulfatase family member H) came out at: viability hit class no change; caspase hit class no change; viability robust z-score 0.24; caspase robust z-score -0.14; inactive.
With knock-down of MYLIP (myosin regulatory light chain interacting protein) the results were viability hit class no change; caspase hit class no change; viability robust z-score -0.18; caspase robust z-score -0.9; inactive.

2 consecutive records from above, quoted:
OR10H4 (olfactory receptor family 10 subfamily H member 4) — viability hit class: no change; caspase hit class: no change; viability robust z-score: -0.54; caspase robust z-score: 1.04; call: inactive
CCDC187 (coiled-coil domain containing 187) — viability hit class: no change; caspase hit class: no change; viability robust z-score: 0.8; caspase robust z-score: 1; call: inactive

The listing continues:
Depletion of EGR3 (early growth response 3) came out at: viability hit class no change; caspase hit class no change; viability robust z-score 0.4; caspase robust z-score 0.57; inactive.
With knock-down of MBTPS2 (membrane bound transcription factor peptidase, site 2), the screen gave viability hit class no change; caspase hit class no change; viability robust z-score 1.59; caspase robust z-score -0.45; inactive.
Against PGAP4 (post-GPI attachment to proteins GalNAc transferase 4) the deposit lists viability hit class no change; caspase hit class no change; viability robust z-score -0.78; caspase robust z-score -0.18; inactive.
EIF5B (eukaryotic translation initiation factor 5B) gave viability hit class no change; caspase hit class no change; viability robust z-score 0.74; caspase robust z-score -0.01; inactive.
